Reference: patent publication US20100143385A1, “METHODS FOR REDUCING PHOSPHATE ABSORPTION” (priority 2006, published 2010)

System: chicks fed a phytic phosphorous basal diet
Assay: chicken model: chicks fed Pi deficient phytic phosphorous diet with added 1α-hydroxyvitamin D3
Format: in vivo, Single Comb White Leghorn chicks
Excerpt: Animal model: The dietary sources of inorganic phosphate (Pi) are largely mineral phosphates or phosphate from animal tissues and products (milk and eggs). These Pi sources are readily available for absorption by monogastric animals. In diseases where the uptake of phosphorous requires intervention, patients are usually required to avoid these foods and take Pi binders. While this is a useful strategy in reducing the absorption of Pi, patients taking alternative food (e.g., plant based foods) during the treatment of diseases such as end stage renal failure is exposed to another source of phosphate that may serve as a pool of Pi for absorption. Phytic phosphorous (PP) represents 70-80% of all phosphorous in plant based foods. PP is normally unavailable for absorption in monogastric animals when consumed and is excreted with the fecal waste.
Providing 1α-hydroxyvitamin D3 to the chickens fed the Pi deficient diet raised the serum phosphate level. Therefore, this model can be used to test whether anti-phytic acid antibodies would be effective in reducing increased serum phosphate levels from a phytic origin caused by 1α-hydroxyvitamin D3.
Animal experiment: The model used in this study was described by Biehl and Baker, J. Nutr. 1997, 127:2054-2059 with the exception of antibodies to phytic acid. […]

C=C1/C(=C\C=C2/CCC[C@]3(C)[C@@H]([C@H](C)CCCC(C)C)CC[C@@H]23)C[C@@H](O)C[C@@H]1O [1α-hydroxyvitamin D3]
Average gain (body weight) (chicks, Pi deficient diet, day 1 to day 10, 1α-hydroxyvitamin D3 20 μg/kg diet alone, or plus antibody 1 g/kg diet): 49.7 g
increase of body weight gain (relative to Pi deficient negative control diet): 25%
